Reference: publication PMC5833442
No constants are given. Whether binding was seen depends on the method and setting. Some binding calls cover weakened binding; strength is not graded here.

Chains of the proteins cited; added tags and fusions are not shown. Residues count along the entry.
UniProt P08238: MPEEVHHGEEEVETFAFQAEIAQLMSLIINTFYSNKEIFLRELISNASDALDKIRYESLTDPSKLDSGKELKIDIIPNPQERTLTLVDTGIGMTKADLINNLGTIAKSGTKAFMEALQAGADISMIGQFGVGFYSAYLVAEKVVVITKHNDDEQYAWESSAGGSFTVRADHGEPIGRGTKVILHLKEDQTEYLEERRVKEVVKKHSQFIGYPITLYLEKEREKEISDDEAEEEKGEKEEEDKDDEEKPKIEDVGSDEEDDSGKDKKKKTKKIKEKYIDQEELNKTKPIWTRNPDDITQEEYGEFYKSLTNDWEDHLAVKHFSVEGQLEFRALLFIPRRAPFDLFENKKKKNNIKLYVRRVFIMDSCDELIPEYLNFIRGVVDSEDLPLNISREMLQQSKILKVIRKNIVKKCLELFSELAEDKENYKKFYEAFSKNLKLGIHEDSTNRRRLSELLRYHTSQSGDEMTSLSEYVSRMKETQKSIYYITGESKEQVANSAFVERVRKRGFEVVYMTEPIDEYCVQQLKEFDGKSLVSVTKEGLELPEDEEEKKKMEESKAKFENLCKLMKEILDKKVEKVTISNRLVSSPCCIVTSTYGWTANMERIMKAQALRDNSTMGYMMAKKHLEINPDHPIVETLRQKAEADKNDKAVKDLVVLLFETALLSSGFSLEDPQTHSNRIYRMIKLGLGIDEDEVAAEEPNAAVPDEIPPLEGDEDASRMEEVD
UniProt P02748, residues 22-559: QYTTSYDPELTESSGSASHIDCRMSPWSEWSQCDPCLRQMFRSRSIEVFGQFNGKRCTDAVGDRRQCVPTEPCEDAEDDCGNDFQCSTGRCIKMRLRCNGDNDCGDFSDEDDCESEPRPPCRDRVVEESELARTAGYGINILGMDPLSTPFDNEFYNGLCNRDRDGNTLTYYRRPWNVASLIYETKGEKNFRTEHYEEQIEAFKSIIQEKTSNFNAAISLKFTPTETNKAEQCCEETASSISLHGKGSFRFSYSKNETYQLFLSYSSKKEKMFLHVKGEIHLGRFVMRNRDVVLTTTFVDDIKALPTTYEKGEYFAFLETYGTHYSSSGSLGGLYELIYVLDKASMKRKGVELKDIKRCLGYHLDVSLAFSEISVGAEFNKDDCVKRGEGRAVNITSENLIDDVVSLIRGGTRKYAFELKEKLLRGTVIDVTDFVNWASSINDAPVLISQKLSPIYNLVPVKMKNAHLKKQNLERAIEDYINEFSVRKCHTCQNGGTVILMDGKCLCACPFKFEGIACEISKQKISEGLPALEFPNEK
UniProt P38646, residues 47-679: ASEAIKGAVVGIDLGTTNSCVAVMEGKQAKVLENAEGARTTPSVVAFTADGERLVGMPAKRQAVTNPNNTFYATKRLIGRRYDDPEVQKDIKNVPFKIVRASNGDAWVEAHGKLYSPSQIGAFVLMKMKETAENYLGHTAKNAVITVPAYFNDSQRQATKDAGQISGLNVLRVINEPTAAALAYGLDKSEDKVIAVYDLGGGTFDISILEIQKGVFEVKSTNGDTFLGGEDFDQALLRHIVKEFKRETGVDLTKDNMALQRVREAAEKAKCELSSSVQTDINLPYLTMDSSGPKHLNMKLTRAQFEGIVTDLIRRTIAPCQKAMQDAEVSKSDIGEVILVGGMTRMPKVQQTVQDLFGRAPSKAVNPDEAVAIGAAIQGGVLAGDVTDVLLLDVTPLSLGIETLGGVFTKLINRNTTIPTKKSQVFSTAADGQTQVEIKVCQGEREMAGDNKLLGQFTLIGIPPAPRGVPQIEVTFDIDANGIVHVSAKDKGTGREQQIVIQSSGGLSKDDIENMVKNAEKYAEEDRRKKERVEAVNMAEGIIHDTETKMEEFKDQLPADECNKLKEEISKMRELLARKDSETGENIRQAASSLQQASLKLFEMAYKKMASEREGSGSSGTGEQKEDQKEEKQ

Tests used:
[1] = molecular target: recombinant human Hsp90β (human) (UniProt P08238); assay: ELISA; wells coated with recombinant Hsp90β or BSA; recombinant His-tagged mortalin added 60 min at 37 °C; detection with anti-His; binding to BSA subtracted; both purified
[2] = molecular target: purified human C9 (human) (UniProt P02748); assay: ELISA; competitive ELISA: wells coated with C9 (100 ng/well) overnight; mortalin pre-mixed with increasing amounts of Hsp90β or BSA added 1 h at 37 °C; bound mortalin detected; both purified

“recombinant human mortalin with a 6xhis-tag (from UniProt P38646 47-679)” was tested, and the binding [1] was “binds” and the binding [2] was “binds”.
